Earlier results, collected in publication PMC7520419 (The AAPS Journal, 2020).
Read-outs that look alike come from different tables or passages of the source.

Conditions: ref published clinical data (Table I), cited from earlier work
Further: test concentration or dose not given here.

CCCCc1oc2ccccc2c1C(=O)c1cc(I)c(OCCN(CC)CC)c(I)c1 [Amiodarone]
Observed AUC(0-inf) Fasted (Model 1): 14000 ng·h/mL
Observed Cmax Fasted (Model 1): 380 ng/mL
Observed AUC(0-inf) Fed (Model 1): 33000 ng·h/mL
Observed Cmax Fed (Model 1): 1400 ng/mL
Observed AUC(0-inf) Fasted (Model 2): 14000 ng·h/mL
Observed Cmax Fasted (Model 2): 380 ng/mL
Observed AUC(0-inf) Fed (Model 2): 33000 ng·h/mL
Observed Cmax Fed (Model 2): 1400 ng/mL

NS(=O)(=O)c1cc(C(=O)O)c(NCc2ccco2)cc1Cl [Furosemide]
Observed AUC(0-inf) Fasted (Model 1): 2090 ng·h/mL
Observed Cmax Fasted (Model 1): 754 ng/mL
Observed AUC(0-inf) Fed (Model 1): 1670 ng·h/mL
Observed Cmax Fed (Model 1): 428 ng/mL
Observed AUC(0-inf) Fasted (Model 2): 1940 ng·h/mL
Observed Cmax Fasted (Model 2): 754 ng/mL
Observed AUC(0-inf) Fed (Model 2): 1590 ng·h/mL
Observed Cmax Fed (Model 2): 428 ng/mL
